Data taken from paper PMC12847834.

Amino acid sequences for entries named in this document (tags omitted).
UniProt Q93009: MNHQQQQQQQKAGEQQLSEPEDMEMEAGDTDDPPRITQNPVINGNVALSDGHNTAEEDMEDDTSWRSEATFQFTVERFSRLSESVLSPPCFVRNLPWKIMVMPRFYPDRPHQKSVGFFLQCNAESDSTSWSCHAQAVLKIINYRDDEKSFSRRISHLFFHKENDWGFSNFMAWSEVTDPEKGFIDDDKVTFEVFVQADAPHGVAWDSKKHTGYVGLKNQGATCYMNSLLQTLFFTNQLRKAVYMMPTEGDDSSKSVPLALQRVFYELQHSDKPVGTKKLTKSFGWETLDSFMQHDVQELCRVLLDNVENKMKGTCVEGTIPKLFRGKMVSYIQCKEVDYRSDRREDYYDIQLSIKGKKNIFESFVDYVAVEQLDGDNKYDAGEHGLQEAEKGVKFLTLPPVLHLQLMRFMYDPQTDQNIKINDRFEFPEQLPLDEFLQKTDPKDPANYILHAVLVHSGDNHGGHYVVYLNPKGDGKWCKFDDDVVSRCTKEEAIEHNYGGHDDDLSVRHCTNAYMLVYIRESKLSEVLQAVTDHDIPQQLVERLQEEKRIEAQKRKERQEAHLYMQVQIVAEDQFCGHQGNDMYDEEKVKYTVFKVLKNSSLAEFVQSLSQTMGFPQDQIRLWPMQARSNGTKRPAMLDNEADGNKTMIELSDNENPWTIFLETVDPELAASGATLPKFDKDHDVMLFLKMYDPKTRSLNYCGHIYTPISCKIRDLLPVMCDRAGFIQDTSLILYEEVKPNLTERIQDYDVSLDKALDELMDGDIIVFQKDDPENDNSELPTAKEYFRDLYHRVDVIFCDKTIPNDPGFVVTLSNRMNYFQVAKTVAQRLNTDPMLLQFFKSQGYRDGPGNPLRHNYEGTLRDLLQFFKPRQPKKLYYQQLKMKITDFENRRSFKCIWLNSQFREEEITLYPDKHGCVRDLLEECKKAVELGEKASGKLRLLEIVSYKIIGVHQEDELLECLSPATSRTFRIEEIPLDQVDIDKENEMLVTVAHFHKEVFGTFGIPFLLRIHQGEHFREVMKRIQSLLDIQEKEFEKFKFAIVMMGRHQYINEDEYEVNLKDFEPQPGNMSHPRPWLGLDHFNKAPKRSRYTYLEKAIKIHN

Biological target: T1, Flag-KDM4A (full-length lysine demethylase 4A) (UniProt O75164)
T1 sequence: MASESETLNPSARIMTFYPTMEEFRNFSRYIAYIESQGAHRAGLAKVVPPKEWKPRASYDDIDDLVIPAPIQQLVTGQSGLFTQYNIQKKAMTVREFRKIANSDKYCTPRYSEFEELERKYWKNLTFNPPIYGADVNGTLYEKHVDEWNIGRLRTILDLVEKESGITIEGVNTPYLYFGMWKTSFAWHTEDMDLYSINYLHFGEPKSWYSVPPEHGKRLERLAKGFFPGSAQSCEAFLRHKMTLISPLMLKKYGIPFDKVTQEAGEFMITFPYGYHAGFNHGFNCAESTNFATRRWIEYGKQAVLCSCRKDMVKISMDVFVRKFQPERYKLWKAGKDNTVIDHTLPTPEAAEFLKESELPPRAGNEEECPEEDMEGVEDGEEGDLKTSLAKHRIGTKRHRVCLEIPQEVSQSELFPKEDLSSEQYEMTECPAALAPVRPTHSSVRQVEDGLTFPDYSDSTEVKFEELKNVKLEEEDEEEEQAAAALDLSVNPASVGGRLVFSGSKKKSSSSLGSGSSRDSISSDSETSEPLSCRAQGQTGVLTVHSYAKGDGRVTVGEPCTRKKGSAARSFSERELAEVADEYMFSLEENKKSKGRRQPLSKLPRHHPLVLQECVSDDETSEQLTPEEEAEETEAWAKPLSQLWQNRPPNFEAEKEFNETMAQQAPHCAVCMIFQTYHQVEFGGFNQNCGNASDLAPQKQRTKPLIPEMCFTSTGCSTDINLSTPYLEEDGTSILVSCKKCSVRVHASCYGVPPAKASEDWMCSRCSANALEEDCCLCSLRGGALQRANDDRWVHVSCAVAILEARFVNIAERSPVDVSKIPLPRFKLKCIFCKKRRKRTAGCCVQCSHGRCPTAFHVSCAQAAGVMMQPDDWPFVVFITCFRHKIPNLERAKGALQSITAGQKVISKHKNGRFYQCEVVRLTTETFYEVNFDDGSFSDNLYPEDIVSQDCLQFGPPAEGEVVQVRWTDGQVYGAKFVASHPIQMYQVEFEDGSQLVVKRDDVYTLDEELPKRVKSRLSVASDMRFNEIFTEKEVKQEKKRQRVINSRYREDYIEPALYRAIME
Experiment: affinity purification with mass spectrometry; Flag-KDM4A over-expressed in 293T cells; co-IP with Flag antibody with highly stringent wash steps; SDS-PAGE, silver staining, excised bands analysed by mass spectrometry

## USP7 (ubiquitin-specific processing protease 7), endogenous (from UniProt Q93009 1-1102)
  binding: binds

Results are given in words; binding and its absence hold for the method and conditions named. Binding seen in cells or lysates may run through a third protein. Here binding means that the protein was enriched with, or labelled near, the bait; the list need not be complete. Where a sequence is shown, tags or fusion partners need not be part of it.
